Test results published in paper PMC5725453.
These are yes or no findings as the source states them, for the method shown. Some binding calls cover weakened binding; strength is not graded here.

Amino acid sequences for entries named in this document (tags omitted).
UniProt Q9H3P7: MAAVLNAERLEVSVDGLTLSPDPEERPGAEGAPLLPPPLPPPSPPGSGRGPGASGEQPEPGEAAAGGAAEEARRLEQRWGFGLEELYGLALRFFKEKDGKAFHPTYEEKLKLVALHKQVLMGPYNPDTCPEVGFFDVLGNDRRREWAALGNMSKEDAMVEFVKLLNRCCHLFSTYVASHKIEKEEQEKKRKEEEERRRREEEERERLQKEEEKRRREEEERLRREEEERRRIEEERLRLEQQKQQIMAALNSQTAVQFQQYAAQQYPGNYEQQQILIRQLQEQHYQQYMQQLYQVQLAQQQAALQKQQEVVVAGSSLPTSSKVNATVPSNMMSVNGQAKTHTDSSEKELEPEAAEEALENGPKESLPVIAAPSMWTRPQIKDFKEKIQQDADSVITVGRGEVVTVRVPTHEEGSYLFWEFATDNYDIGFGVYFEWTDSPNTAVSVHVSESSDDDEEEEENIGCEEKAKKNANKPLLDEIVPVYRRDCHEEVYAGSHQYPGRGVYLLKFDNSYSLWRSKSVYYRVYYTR

Molecular target: ACBD3 (unlabeled) (UniProt Q9H3P7)
Experiment: GUV membrane recruitment assay (confocal microscopy); CFP-3A tethered to GUVs containing 5% DGS-NTA(Ni); Alexa488 labeled PI4KB and unlabeled ACBD3 added together (250 nM each); both purified

B1: PI4KB labeled by Alexa488 (with deleted disordered loop 424-521) (enzyme, UniProt Q9UBF8)
chain: MGDTVVEPAPLKPTSEPTSGPPGNNGGSLLSVITEGVGELSVIDPEVAQKACQEVLEKVKLLHGGVAVSSRGTPLELVNGDGVDSEIRCLDDPPAQIREEEDEMGAAVASGTAKGARRRRQNNSAKQSWLLRLFESKLFDISMAISYLYNSKEPGVQAYIGNRLFCFRNEDVDFYLPQLLNMYIHMDEDVGDAIKPYIVHRCRQSINFSLQCALLLGAYSSDMHISTQRHSRGTKLRKLILSDELKPAHRKRELPSLSPAPDTGLSPSKRTHQRSKSDATASISLSSNLKRTASNPKVENEDEELSSSTESIDNSFSSPVRLAPEREFIKSLMAIGKRLATLPTKEQKTQRLISELSLLNHKLPARVWLPTAGFDHHVVRVPHTQAVVLNSKDKAPYLIYVEVLECENFDTTSVPARIPENRIKRDPEDPSAVALKEPWQEKVRRIREGSPYGHLPNWRLLSVIVKCGDDLRQELLAFQVLKQLQSIWEQERVPLWIKPYKILVISADSGMIEPVVNAVSIHQVKKQSQLSLLDYFLQEHGSYTTEAFLSAQRNFVQSCAGYCLVCYLLQVKDRHNGNILLDAEGHIIHIDFGFILSSSPRNLGFETSAFKLTTEFVDVMGGLDGDMFNYYKMLMLQGLIAARKHMDKVVQIVEIMQQGSQLPCFHGSSTIRNLKERFHMSMTEEQLQLLVEQMVDGSMRSITTKLYDGFQYLTNGIM
modifications: Alexa488 maleimide on native cysteine residues (labeling efficiency 116%)
B1 was tested, and the binding was “binds”.
